Assay results from PubChem BioAssay AID1347423 (Functional Genomics Laboratory (NCATS/FGL), 2020).
In all, about 52,000 sequences went through this assay and about 210 (0.4%) were called active.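 Rule for the calls: active = gene whose silencing raises cell survival under the drug, median off-target-corrected z-score across its silencing RNAs 2 or more; inactive = the rest.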 The list shows a part of the results.

test: Resistance to Poly (ADP-Ribose) Polymerase inhibitor: Gene Identification via Genome-wide siRNA Screen; conditions: mouse BRCA2 R2336H ES cells, olaparib, CellTiter-Glo viability; stronger effect = higher value
Description: The role of Poly (ADP-Ribose) Polymerase (PARP) proteins in DNA repair has been elegantly utilized for the synthetic lethality-based treatment of BRCA-deficient tumors by PARP inhibitors. PARP inhibitors are now being used for treatment of BRCA-deficient breast and ovarian cancers. […] While several mechanisms of drug resistance have been identified, majority of these tumors develop drug resistance due to unknown causes. To identified novel regulators of chemo-resistance in BRCA2-mutated cells, we performed a genome wide siRNA library screen. We have found ES cells expressing a hypomorphic allele of BRCA2 to be hypersensitive to PAPP inhibitors (such as olaparib). We used ES cells expressing a mutant allele of BRCA2 that has a single amino acid substitution at position 2336 (arginine to histidine, R2336H). The screen was conducted using an Ambion (Thermo) Silencer Mouse Genome siRNA collection. The library targets 17,575 mouse genes with 3 siRNAs per gene. TET2 (E130014J05Rik) was identified as a top candidate.
Transfections were performed in 384 well plates (Corning 3707). Plates were coated with 0.1% gelatin in H2O overnight at ambient temperature. Gelatin solution was aspirated (BioTek EL406) and siRNAs were printed using a Bravo VPrep liquid handler integrated within a BioCel automation platform (Agilent). Cell viability was measured using CellTiter Glo (Promega). For transfections, […] of serum free media containing Lipofectamine RNAiMax […] was added to wells containing siRNA (0.8pmol). Lipid and siRNA were allowed to complex for 45 min at ambient temperature before addition of 1000 cells in DMEM, 30% FBS to yield final transfection mixtures containing 20 nM siRNA in DMEM, 15% FBS. PARPi (olaparib, AZD2281) was added 48 h post-transfection (500 nM) and viability (CellTiter Glo, Promega) was assayed 72 h later on a PerkinElmer Envision 2104 Multilabel plate reader. Ambion Silencer Select Negative Control #2 was incorporated on all screening plates (16 wells) and the median negative control value on each plate was used for normalization. An siRNA targeting Trp53 was used as a positive control. This control yielded a median protective effect of ~1.9 fold versus negative control throughout the screen. The median absolute deviation (MAD) based z-score was calculated for each siRNA. Genes were then ranked by taking the median value for all siRNAs tested against a given gene. Scores were also adjusted for seed-based off-target effects to help deprioritize likely false positives.

| Sequence | z-score |
| --- | --- |
| GGCUCAGACCUGGAUACAUTT against Oas1e | inactive: -0.463 |
| GUUCACACACGAAUUUGACTT against H2-Oa | inactive: 0.232 |
| GCACGUGGAUCCUAACAAGTT against 4932702D22Rik | inactive: -0.0557 |
| CCUAAAACCUUCAAGUCUUTT against 2700017M01Rik | inactive: 1.06 |
| CCUUCUGCGGCUCAGUCUATT against BC024582 | inactive: -1.93 |
| CCAAAUCUGAAAUGUGCGGTT against Mare | inactive: 0.0524 |
| GGUCUCUUGACUUCAGUACTT against Shc3 | inactive: 0.195 |
| CGAGGAUGCUUUUUAAAAATT against 1110054O05Rik | inactive: 0.907 |
| GGAAGAGGAGUCCUACUCUTT against Pla2g12b | inactive: 0.406 |
| CGGGAGAAAAUUUUAAAGGTT against Qscn6l1 | inactive: 1.79 |
| CCAGUAUUAUCUAACAUCGTT against Pdk4 | inactive: 1.14 |
| GGCAAUGGCUUCGUAGUAUTT against Ltb4r2 | inactive: -1.21 |
| GGUCAUGGCUACUUCAUCCTT against A930013K19 | inactive: 0.982 |
| GGAUGACAAUCAACAUUCCTT against B430201G11Rik | inactive: 0.302 |
| GGAGAAAGCAAGGAUAAUCTT against Rgs20 | inactive: 0.584 |
| CCACAGUACGCUGAAAUCCTT against Morf4l1 | inactive: 0.394 |
| GGCAUACAAGAAGUGUCUATT against Snta1 | inactive: 0.389 |
| GGAAACCUGAUUAUCAUCATT against Olfr791 | inactive: 0.431 |
| GCACUUAAUACUUUAUGUGTT against Iapp | inactive: -1.41 |
| GGCCUAAUUUCCUCUAAUATT against Padi1 | inactive: 1.03 |
| GGUAAUGAAUGGACAAUGATT against 9130401M01Rik | inactive: -0.0912 |
| GGCAGGGUAGCCAAACAAATT against G630055P03Rik | inactive: 1.86 |

Not a retest: entries from further up.

| Sequence | z-score |
| --- | --- |
| GGCUCAGACCUGGAUACAUTT against Oas1e | inactive: -0.463 |
| GUUCACACACGAAUUUGACTT against H2-Oa | inactive: 0.232 |
| GCACGUGGAUCCUAACAAGTT against 4932702D22Rik | inactive: -0.0557 |
| CCUAAAACCUUCAAGUCUUTT against 2700017M01Rik | inactive: 1.06 |
| CCUUCUGCGGCUCAGUCUATT against BC024582 | inactive: -1.93 |
| CCAAAUCUGAAAUGUGCGGTT against Mare | inactive: 0.0524 |
| GGUCUCUUGACUUCAGUACTT against Shc3 | inactive: 0.195 |
| CGAGGAUGCUUUUUAAAAATT against 1110054O05Rik | inactive: 0.907 |
| GGAAGAGGAGUCCUACUCUTT against Pla2g12b | inactive: 0.406 |
| CGGGAGAAAAUUUUAAAGGTT against Qscn6l1 | inactive: 1.79 |
| CCAGUAUUAUCUAACAUCGTT against Pdk4 | inactive: 1.14 |
| GGCAAUGGCUUCGUAGUAUTT against Ltb4r2 | inactive: -1.21 |
| GGUCAUGGCUACUUCAUCCTT against A930013K19 | inactive: 0.982 |
| GGAUGACAAUCAACAUUCCTT against B430201G11Rik | inactive: 0.302 |
| GGAGAAAGCAAGGAUAAUCTT against Rgs20 | inactive: 0.584 |
| CCACAGUACGCUGAAAUCCTT against Morf4l1 | inactive: 0.394 |

Continued.

| Sequence | z-score |
| --- | --- |
| GGAGCAUUCACCUGUCUGUTT against Gdf9 | inactive: 0.189 |
| GCGAUUGAUGAAUUUCGACTT against Atp9b | inactive: 1.45 |
| ACCUCCAGUCGCAUAGAAGTT against LOC435366 | inactive: 0.506 |
| GGUGGUGAACUGUUUGACCTT against Pnck | inactive: 0.354 |
| GGCAGGCAGAAGGCUUUUUTT against Olfr228 | inactive: -0.943 |
| GCAGGUUCAUACGAUCCAGTT against Plekha3 | inactive: -1.75 |
| CCUCCUGUGUUACUUGCGUTT against Bsf3 | inactive: -0.472 |
| GGAAAGCAUGCAGUUCAUATT against Cyp4f13 | inactive: 0.0612 |
| GGUUGAUGAAAUUAGAGAGTT against A930014I12Rik | inactive: 0.564 |
| GGAAGUGAAGACCUUCUUCTT against Siat4c | inactive: 0.327 |
| GGGAAUUGCUUUUAAAUGATT against Cnot6l | inactive: 0.636 |
| GUUAUCAUCACCAUGUUGGTT against Atp6v0e | inactive: 0.866 |
| GGAGGUCCCUUCUUCAGCUTT against D12Ertd748e | inactive: -0.693 |
| GGUUGCUCACUCAUUUAACTT against Pa2g4 | inactive: 0.914 |
| GGCUGUGUUUUUGAACCUUTT against Chrna3 | inactive: 2.5 |
| GCCGUGGUGUGGAUUUUUGTT against Cenpa | inactive: -0.38 |
| GGCCUCAUGCAGGAACAUUTT against 2610028L19Rik | inactive: -1.88 |
| GGAUAUGUUGGAGAAGGACTT against 2410018C20Rik | inactive: -1.57 |
| GCUCCUGAGAGCUAUAGUUTT against Ddx39 | inactive: -1.37 |
| GCUGGAUGUGAAAAGAGCGTT against Fts | inactive: -1.16 |
| CCGUGACGAGCUUGUGGUUTT against Ap3b2 | inactive: -0.766 |
| GGACAGUUCAAGAUGUUCCTT against Mthfr | inactive: -0.0614 |

| Sequence | z-score |
| --- | --- |
| CCAAGAAAGCAGGAUUAAGTT against Noxo1 | inactive: 2.11 |
| GGUAUUGUUUGGUGACAAATT against Lipl2 | inactive: -0.0931 |
| CGAAAGAAGGUGAGGGCUCTT against Ppp1r9a | inactive: -0.95 |
| GGCUACCUACAGCACCAACTT against Mbc2 | inactive: -0.798 |
| GGAAUAUAAUGGUUACACATT against Trf | inactive: -0.824 |
| GGCAUGUCAGUGAAAUUUUTT against V1rd22 | inactive: 0.403 |
| CCUGGGACCUAUAACUCCATT against MGC58608 | inactive: -0.0145 |
| GGAAGAAAAAAACUUCGUUTT against Gabrg3 | inactive: -0.526 |
| GGCGCACAAUCAAGAUCUUTT against Col4a4 | inactive: -0.0689 |
| GCUCAUUCAACCAAUAUGCTT against Tmprss7 | inactive: 0.866 |
| CCUGUCUGGACUUGUCUAATT against Ica1 | inactive: -1.14 |
| GCACCAAUGGAACAGUGAUTT against Chfr | inactive: -2.36 |
| CCCAUAUCCUAGCUCUCUUTT against Olfr1230 | inactive: 0.00557 |
| CGCAGCUUCCACAUUAGUGTT against Rad23a | inactive: -0.345 |
| CGACCUACAUCAUUAUGAATT against Chrm3 | inactive: -0.349 |
| GGCUUCAAGGAGACUGCUUTT against Wnt9a | inactive: -0.731 |
| GGGUCCAGUAUCCAUCAAATT against Sf3a1 | inactive: -2.8 |
| GGCAAACAUGUGUUCCCUGTT against Prap1 | inactive: 0.129 |
| GGAACAAUUUGAUCCAGCATT against Mbnl2 | inactive: -0.616 |
| GCUAGGCUUAUGAUCUUUUTT against Pfkp | inactive: 0.292 |
| CCCUGACUACCUCUACCAUTT against 9830134C10Rik | inactive: 0.947 |
| GCUUUCAAAUGAAUCUGGATT against D630023F18Rik | inactive: 0.299 |
